In doi:10.1101/2022.07.08.499162:
Construct, isoform or probe ends are uncertain for at least one entry. For some of these results: Weaker means in comparison with the reference protein, sequence or condition of that experiment. At least one verdict was read from the data and is not stated in words by the source. Protein sequences can lack the tags named with them.

Legend:
UPF1-HD WT (human) [1] = test system: T1, UPF1-HD WT (human); assay: fluorescence anisotropy
T1 sequence (looked up, limits assumed): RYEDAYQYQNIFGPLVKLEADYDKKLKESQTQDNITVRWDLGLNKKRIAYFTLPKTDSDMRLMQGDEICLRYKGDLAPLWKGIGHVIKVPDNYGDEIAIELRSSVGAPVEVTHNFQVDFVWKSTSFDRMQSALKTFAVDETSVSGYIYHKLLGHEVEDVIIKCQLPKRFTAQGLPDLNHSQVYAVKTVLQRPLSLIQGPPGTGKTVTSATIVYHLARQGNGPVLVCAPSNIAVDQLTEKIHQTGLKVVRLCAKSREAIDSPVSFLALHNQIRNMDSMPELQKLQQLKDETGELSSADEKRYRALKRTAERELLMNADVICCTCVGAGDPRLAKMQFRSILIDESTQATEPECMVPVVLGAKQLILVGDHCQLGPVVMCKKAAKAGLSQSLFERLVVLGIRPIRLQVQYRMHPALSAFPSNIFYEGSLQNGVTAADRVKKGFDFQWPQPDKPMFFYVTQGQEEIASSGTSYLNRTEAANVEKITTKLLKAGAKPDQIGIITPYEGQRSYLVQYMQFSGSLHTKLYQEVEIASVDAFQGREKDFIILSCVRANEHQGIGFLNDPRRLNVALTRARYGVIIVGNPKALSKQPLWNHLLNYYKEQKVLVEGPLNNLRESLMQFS

UPF1-HD WT (human) [2] = test system: T1, UPF1-HD WT (human); assay: fluorescence anisotropy dissociation; settings: prebound, ATP-stimulated dissociation with 2 mM ATP
[3] = 1 mM ATP, 2 hr, weaker than with AMP-PNP

AGCTAGTTGTACGCACAC [18mer_5AF488]: binds more weakly (UPF1-HD WT (human) [1]; 1 mM AMP-PNP, 2 hr); binds more weakly (UPF1-HD WT (human) [1]; [3]); binds (UPF1-HD WT (human) [1]; no ATP, range over the assays).
“AGCTAGTTGTACGCACACTGCATTGCAATCGAATCGAA [38mer_5AF488]”: binds more weakly (UPF1-HD WT (human) [1]; 1 mM AMP-PNP, 2 hr); binds more weakly (UPF1-HD WT (human) [1]; [3]); binds (UPF1-HD WT (human) [1]; no ATP, range over the assays).
“GTGTGCGTACAACTAGCTGACAAAAACACAAAACAAAA / AGCTAGTTGTACGCACAC [20mer-fad + 18mer_3AF488 (20 nt 3' overhang)]”: binds (UPF1-HD WT (human) [2]).
“GTGTGCGTACAACTAGCTGACAAAAACACAAAACAAAAGACAAAAACACAAAACAAAA / AGCTAGTTGTACGCACAC [40mer-fad + 18mer_3AF488 (40 nt 3' overhang)]”: binds (UPF1-HD WT (human) [2]).
“GTGTGCGTACAACTAGCTGACAAAAACACAAAACAAAAGACAAAAACACAAAACAAAAGACAAAAACACAAAACAAAA / AGCTAGTTGTACGCACAC [60mer-fad + 18mer_3AF488 (60 nt 3' overhang)]”: binds (UPF1-HD WT (human) [2]).
“GTGTGCGTACAACTAGCTGACAAAAACACAAAACAAAAGACAAAAACACAAAACAAAAGACAAAAACACAAAACAAAAGACAAAAACACAAAACAAAA / AGCTAGTTGTACGCACAC [80mer-fad + 18mer_3AF488 (80 nt 3' overhang)]”: binds (UPF1-HD WT (human) [2]).
